# Assay results published in PMC12858073.
# Sequences of proteins named here, by UniProt entry; tags and fusion partners are left off.
# UniProt Q921F2: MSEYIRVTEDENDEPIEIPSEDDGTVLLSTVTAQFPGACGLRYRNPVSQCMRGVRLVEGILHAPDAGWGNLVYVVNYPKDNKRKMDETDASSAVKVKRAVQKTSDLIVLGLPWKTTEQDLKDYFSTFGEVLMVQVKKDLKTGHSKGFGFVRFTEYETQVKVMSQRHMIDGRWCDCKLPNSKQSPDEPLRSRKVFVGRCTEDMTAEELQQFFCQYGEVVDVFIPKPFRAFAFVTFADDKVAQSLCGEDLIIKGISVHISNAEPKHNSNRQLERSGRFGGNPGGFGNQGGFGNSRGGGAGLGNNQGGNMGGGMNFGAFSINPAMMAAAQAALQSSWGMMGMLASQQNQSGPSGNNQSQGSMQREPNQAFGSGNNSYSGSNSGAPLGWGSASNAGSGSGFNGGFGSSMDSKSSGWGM
# UniProt P29341: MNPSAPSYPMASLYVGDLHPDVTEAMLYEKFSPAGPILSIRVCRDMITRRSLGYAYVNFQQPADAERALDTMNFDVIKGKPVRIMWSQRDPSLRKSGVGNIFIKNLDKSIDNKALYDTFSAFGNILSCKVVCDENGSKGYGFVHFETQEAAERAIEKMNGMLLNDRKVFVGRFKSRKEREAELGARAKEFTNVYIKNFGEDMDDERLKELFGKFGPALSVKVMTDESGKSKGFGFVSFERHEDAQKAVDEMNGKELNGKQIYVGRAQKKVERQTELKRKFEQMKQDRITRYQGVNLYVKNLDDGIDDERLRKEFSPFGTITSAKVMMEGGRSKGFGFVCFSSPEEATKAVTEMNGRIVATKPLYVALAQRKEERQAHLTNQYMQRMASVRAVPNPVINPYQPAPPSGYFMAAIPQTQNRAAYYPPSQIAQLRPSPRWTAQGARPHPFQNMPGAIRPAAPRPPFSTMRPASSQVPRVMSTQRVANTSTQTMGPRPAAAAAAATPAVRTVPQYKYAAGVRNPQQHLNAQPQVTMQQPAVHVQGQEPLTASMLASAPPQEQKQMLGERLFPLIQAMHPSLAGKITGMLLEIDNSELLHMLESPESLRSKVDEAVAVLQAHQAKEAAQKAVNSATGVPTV
# T1: Ala10 PABPN1-TurboID (UniProt Q8CCS6)
# T1 sequence: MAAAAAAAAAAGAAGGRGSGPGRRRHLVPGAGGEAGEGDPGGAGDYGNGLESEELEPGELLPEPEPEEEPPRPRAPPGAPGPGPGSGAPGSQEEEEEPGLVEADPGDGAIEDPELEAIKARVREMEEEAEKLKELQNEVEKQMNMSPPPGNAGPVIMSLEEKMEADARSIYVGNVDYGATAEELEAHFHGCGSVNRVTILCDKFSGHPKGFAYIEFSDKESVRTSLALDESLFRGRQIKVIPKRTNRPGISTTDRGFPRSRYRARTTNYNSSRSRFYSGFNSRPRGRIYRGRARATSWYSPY
# T2: Ala17 PABPN1-TurboID (UniProt Q8CCS6)
# T2 sequence: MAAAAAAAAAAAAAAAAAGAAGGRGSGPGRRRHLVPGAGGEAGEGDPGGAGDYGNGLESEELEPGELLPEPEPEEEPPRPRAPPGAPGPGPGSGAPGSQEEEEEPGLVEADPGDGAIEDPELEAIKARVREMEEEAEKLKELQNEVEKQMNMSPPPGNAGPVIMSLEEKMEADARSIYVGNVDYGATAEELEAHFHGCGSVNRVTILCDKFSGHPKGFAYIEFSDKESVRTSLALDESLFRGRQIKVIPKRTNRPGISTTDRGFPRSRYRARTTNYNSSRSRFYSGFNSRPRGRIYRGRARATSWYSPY
# Legend:
# Ala10 PABPN1-TurboID [1] = biological target: T1, Ala10 PABPN1-TurboID; experiment: proximity labelling; PABPN1-TurboID in C2C12 myotubes (doxycycline ~48 h, 1 mM biotin 2 h); lysate in RIPA with 1% SDS; capture on streptavidin agarose beads overnight at 4 C; eluates analysed by immunoblot with specific antibodies
# Ala17 PABPN1-TurboID [2] = biological target: T2, Ala17 PABPN1-TurboID; experiment: as above
# Ala10 PABPN1-TurboID [3] = biological target: T1, Ala10 PABPN1-TurboID; experiment: proximity labelling; PABPN1-TurboID at near-native levels in C2C12 myotubes (doxycycline, biotin); streptavidin capture; label-free quantitative nanoLC-MS/MS against the Mus musculus database; three experiments; strict hits in at least two of three replicates and not in wild type controls
# Ala17 PABPN1-TurboID [4] = biological target: T2, Ala17 PABPN1-TurboID; experiment: as above
# Ala10 PABPN1-TurboID [5] = biological target: T1, Ala10 PABPN1-TurboID; experiment: proximity labelling; PABPN1-TurboID in C2C12 myotubes (doxycycline ~48 h, 1 mM biotin 2 h); lysate in RIPA with 1% SDS; capture on streptavidin agarose beads overnight at 4 C; eluates analysed by immunoblot with specific antibodies; remark: listed apart in the source
# Ala17 PABPN1-TurboID [6] = biological target: T2, Ala17 PABPN1-TurboID; experiment: as above; remark: listed apart in the source
binding (Ala10 PABPN1-TurboID [1]),binding (Ala17 PABPN1-TurboID [2]),binding (Ala10 PABPN1-TurboID [3]),binding (Ala17 PABPN1-TurboID [4]),binding (Ala10 PABPN1-TurboID [5]),binding (Ala17 PABPN1-TurboID [6]),Molecule
binds,binds,binds,binds,–,–,TDP-43 (from UniProt Q921F2 1-414)
binds,binds,binds,binds,–,–,PABPC1 (from UniProt P29341 1-636)
–,–,binds,binds,–,–,"RBM27 (protein, UniProt Q5SFM8 1-1060) MLIEDVDALKSWLAKLLEPICDADPSALANYVVALVKKDKPEKELKAFCADQLDVFLQKETSGFVDKLFESLYTKNYLPPLEPVKPEPKPLVQEKEEIKEEVFQEPAEEERDTRKKKYPSPQKSRSESSERRTREKKREDGKWRDYERYYERNELYREKYDWRRGRSKSRSKSRGLSRSRSRSRGRSKDRDPNRNVEHRERSKFKSERNDLESSYVPVSAPPPSSSEQYSSGAQSIPSTVTVIAPAHHSENTTESWSNYYNNHSSSNSFGRNPPPKRRCRDYDERGFCVLGDLCQFDHGNDPLVVDEVALPSMIPFPPPPPGLPPPPPPGMLMPPMPGPGPGPGPGPGPGPGPGPGPGHSMRLPVPQGHGQPPPSVVLPIPRPPISQSSLINSRDQPGTSAVPNLAPVGARLPPPLPQNLLYTVSERQPMYSREHGAAASERLQLGTPPPLLAARLVPPRNLMGSSIGYHTSVSSPTPLVPDTYEPDGYNPEAPSITSSGRSQYRQFFSRAQTQRPNLIGLTSGDMDANPRAANIVIQTEPPVPVSVNSNVTRVVLEPESRKRAISGLEGPLTKKPWLGKQGNNNQSKPGFLRKNHYTNTKLEVKKIPQELNNITKLNEHFSKFGTIVNIQVAFKGDPEAALIQYLTNEEARKAISSTEAVLNNRFIRVLWHRENNEQPALQSSAQILLQQQHTLSHLSQQHHSLPQHLHPQQVMVTQSSPSSVHGGIQKMMGKPQTSGAYVLNKVPVKHRLGHASTNQSDTSHLLNQTGGSSGEDCPVFSTPGHPKTIYSSSNLKAPSKLCSGSKSHDVQEVLKKKQEAMKLQQDMRKKKQEMLEKQIECQKMLISKLEKNKNMKPEERANIMKTLKELGEKISQLKDELKTSSTVSTPSKVKTKTEAQKELLDTELDLHKRLSSGEDTTELRKKLSQLQVEAARLGILPVGRGKTISSQGRGRGRGRGRGRGSLNHMVVDHRPKALPGGGFIEEEKDELLQHFSATNQASKFKDRRLQISWHKPKVPSISTETEEEEVKEEETETSDLFLHDDDDEDEDEYESRSWRR"
–,–,–,–,binds,binds,"THOC5 (protein, UniProt Q8BKT7 1-683) MSSESSKKRKPKVIRSDGTPTEGKRNRSDTEQEGKYYSEEAEVDLRDPGRDYELYKYTCQELQRLMAEIQDLKSKGSKDVAIEIEERRIQSCVHFMTLKKLNRLAHIRLKKGRDQTHEAKQKVDAYHLQLQNLLYEVMHLQKEITKCLEFKSKHEEIDLVSLEEFYSEAPPSISKAEITMGDPHQQTLARLDWELEQRKRLAEKYRECLSNKEKILKEIEVKRDYLSSLQPRLNSIMQASLPVQEYLFMPFDQAHKQYETARHLPPPLYVLFVQATAYGQACDKTLSVAIEGSVDEAKALFKPPEDSQDDESDSDAEEEQTTKRRRPTLGVQLDDKRKEMLKRHPLSVLLDLKCKDNSVLHLTFYYLMNLNIMTVKAKVTTAVELITPISAGDLLSPDSVLSCLYPGDHGKKTPNPANQYQFDKVGILTLRDYVLELGHPYLWVQKLGGLHFPKEQPQQTVMPDHSQSASHMETTMKLLKTRVQSRLALHKQFASLEHGIVPVTSDCQDLFPAKVVSRLVKWVIITHEDYMELHFTKDIVEAGLAGDTNLYYLALIERGTAKLQAAVVLNPGYSSIPPVFRLCLNWKGEKTNSNDDNIRAMESEVNVCYKELCGPRPSHQLLTNQLQRLCVLLDVYLETESHDDSFEGPKEFPQEKMCLRLFRGPSRMKPFKYNHPQGFFSHR"
–,–,binds,binds,–,–,"CPSF6 (protein, UniProt Q6NVF9 1-551) MADGVDHIDIYADVGEEFNQEAEYGGHDQIDLYDDVISPSANNGDAPEDRDYMDTLPPTVGDDVGKGAAPNVVYTYTGKRIALYIGNLTWWTTDEDLTEAVHSLGVNDILEIKFFENRANGQSKGFALVGVGSEASSKKLMDLLPKRELHGQSPVVTPCNKQFLSQFEMQSRKTTQSGQMSGEGKAGPPGGGSRAAFPQGGRGRGRFPGAVPGGDRFPGPAGPGGPPPPFPAGQTPPRPPLGPPGPPGPPGPPPPGQVLPPPLAGPPNRGDRPPPPVLFPGQPFGQPPLGPLPPGPPPPVPGYGPPPGPPPPQQGPPPPPGPFPPRPPGPLGPPLTLAPPPHLPGPPPGAPPPAPHVNPAFFPPPTNSGMPTSDSRGPPPTDPYGRPPPYDRGDYGPPGREMDTARTPLSEAEFEEIMNRNRAISSSAISRAVSDASAGDYGSAIETLVTAISLIKQSKVSADDRCKVLISSLQDCLHGIESKSYGSGSRRERSRERDHSRSREKSRRHKSRSRDRHDDYYRERSRERERHRDRDRDRDRERDREREYRHR"
–,–,binds,binds,–,–,"STEAP3 (protein, UniProt Q8CI59 1-488) MSGEMDKPLISRRLVDSDGSLAEVPKEAPKVGILGSGDFARSLATRLVGSGFSVVVGSRNPKRTAGLFPSLAQVTFQEEAVSSPEVIFVAVFREHYSSLCSLADQLAGKILVDVSNPTEKEHLQHRQSNAEYLASLFPACTVVKAFNVISAWALQAGPRDGNRQVLICSDQPEAKRTISEMARAMGFTPLDMGSLASAREVEAIPLRLLPSWKVPTLLALGLFVCFYTYNFIRDVLQPYIRKDENKFYKMPLSVVNTTLPCVAYVLLSLVYLPGVLAAALQLRRGTKYQRFPDWLDHWLQHRKQIGLLSFFFAMLHALYSFCLPLRRSHRYDLVNLAVKQVLANKSRLWVEEEVWRMEIYLSLGVLALGMLSLLAVTSLPSIANSLNWKEFSFVQSTLGFVALILSTMHTLTYGWTRAFEENHYKFYLPPTFTLTLLLPCVIILAKGLFLLPCLSRRLTKIRRGWEKDGAVKFMLPGDHTQGEKTSHV"

# No constants are given. Whether binding was seen depends on the method and setting. Binding seen in cells or lysates may run through a third protein. A yes stands for co-enrichment or nearness to the bait. Other partners may have been found.
